This note sets out measurements from patent publication JP2020027089A.

Results are given in words; binding and its absence hold for the method and conditions named. Some binding calls cover weakened binding; strength is not graded here.

The assay addresses T1, ヒトMK(ピキア酵母GS115で発現・精製した組換えヒトミッドカイン、免疫原) (human) (UniProt P21741).
T1 sequence (looked up): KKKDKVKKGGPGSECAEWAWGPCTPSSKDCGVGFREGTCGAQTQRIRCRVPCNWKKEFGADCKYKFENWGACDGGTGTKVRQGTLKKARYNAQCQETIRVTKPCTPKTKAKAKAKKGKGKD
Kind of assay: ELISA, hybridoma culture supernatant on plate-coated MK antigen. A general note: An ELISA detects its analyte on a solid surface through an enzyme-linked reagent.

B1: 抗ヒトMKモノクローナル抗体#12 (antibody, V domains shown)
VH: QVQLQQPGTELVKPGASVKLSCKASGYTFTSYWMHWVKQRPGHGLDWIGNINPHNGGTNYNEKFNNRATLTVDKSSTTAYMQLSSLTSEDSADYYCVRGGHYDEGYFEYWGQGTTLTVSS
VL: DIQMTQSPASLSASVGETVTITCRASGNIHNYLAWQQKQGKSPQFLVYNAKTLADGVPSRFSGSGSGTQFSLKINSLQPEDFGNYYCQHFWSTPFTFGSGTKLEIK
B1: the binding result was “binds”.
